Test results taken from paper PMC5027585, “TSPO ligands stimulate ZnPPIX transport and ROS accumulation leading to the inhibition of P. falciparum growth in human blood” (Scientific Reports, 2016).
These are yes or no findings as the source states them, for the method shown. A result given as binding can be weak or reduced; the word gives no strength.

Target: Voltage Dependent Anion Channel (VDAC) (human (endogenous in red blood cells))
Experiment: native gel or EMSA; two-dimensional native (3-12% gradient) then 12% SDS-PAGE of ghosts solubilised in 1% dodecylmaltoside, immunoblot

binding: binds
B1: TranSlocator PrOtein 2 (TSPO2) (natural protein, human (endogenous in red blood cells), UniProt Q5TGU0 1-170, looked up)
chain: MRLQGAIFVLLPHLGPILVWLFTRDHMSGWCEGPRMLSWCPFYKVLLLVQTAIYSVVGYASYLVWKDLGGGLGWPLALPLGLYAVQLTISWTVLVLFFTVHNPGLALLHLLLLYGLVVSTALIWHPINKLAALLLLPYLAWLTVTSALTYHLWRDSLCPVHQPQPTEKSD
notes: TSPO2, human, second TSPO isoform, endogenous in mature red blood cells; detected with a rabbit antibody against the 13 C-terminal residues of hTSPO2; also called hTSPO2; source: endogenous, human red blood cell membranes (ghosts) or Triton X-100 lysate of healthy and P. falciparum-infected RBCs
